Data from patent US20170158764A1.

Experiments:
[1] = target: canine PD-L1 with two C-terminal FLAG tags, stably expressed on NRK cells (NRK/cPDL1) (dog); assay: flow cytometry on NRK/cPDL1 cells, antibody 0-10 ug/ml, anti-rat IgG-PE
[2] = target: canine PD-1 with two C-terminal FLAG tags, stably expressed on NRK cells (NRK/cPD1) (dog); assay: flow cytometry on NRK/cPD1 cells, antibody 0-10 ug/ml, anti-rat IgG-PE
[3] = target: canine PD-1 expressed on canine cells (PBMC / activated T cells) (dog); assay: flow cytometry of CD3-positive canine PBMC cultured with PMA/ionomycin or ConA, stained with the antibody

Binder	binding [1]	binding [2]	binding [3]
rat monoclonal antibody against cPDL1 H7-9 (antibody, IgG2a, V domains shown) VH: QVQLKESGPGLVQPSQTLSLTCTVSGFSLTSYTVSWVRQPPGKGLEWIAAISSGGNTYSNSALKSRLSISRDTSKSQFFLKMNSLQTEDTAMYFCAREGYYGYNFDYWGQGVMVTVSS VL: DIVMTQSPTSMSISVGDRVTMNCKASQNVGSNVDWYQQKTGQSPKLLIYKASNRYTGVPDRFTGSGSGTDFTFTISNMQAEDLAVYYCMQSNSYPLTFGSGTKLEIK	binds		
rat monoclonal antibody against cPD1 4F12-E6 (antibody, IgG2a, V domains shown) VH: EVQLVETGGGLVQPGRSLKLSCVASGFTFNNYWMTWTRQAPGKGLEWVASITNSGVSTYYPDSVKGRFTISRDNAQNTLYLQMNSLRSEDTATYYCTSALNWGYWYFDFWGPGTMVTVSS VL: DIVMTQTPSSQAVSAGEKVTMSCKSSQSLLYSENKKNYLAWYQQKPGQSPKLLIYWASTRESGVPDRFIGSGSGTDFTLTISSVQAEDLAVYYCQQYYNFPLTFGSGTKLEIK		binds	binds

The next lines start with the values.

binding [1]	binding [2]	binding [3]	Binder
binds			rat monoclonal antibody against cPDL1 G11-6 (antibody, IgG2a, V domains shown) VH: EVQLVESGGGLVQPGRSLKLSCAASGFTFSDYYMAWVRQAPKKGLEWVASISYEDSSTYYGDSVKGRFTISRDNAKSTLYLQMNSLRSEDTATYYCARSAWNYPYWFAYWGQGTLVTVSS VL: NTVMTQSPTSMFISVGDRVTVNCKASQNVGTNVDWYQQKTGQSPKLLIYGASNRYTGVPDRFTGSGSGTDFTLTISNMQAEDLAVYYCLQYNYNPWTFGGGTKLELK
	binds		rat monoclonal antibody against cPD1 3B7-D9 (antibody, IgG2a, V domains shown) VH: EVQLVETGGGLVQPGRSLKLSCVASGFTFNNYWMSWTRQAPGKGLEWVASITNSGVSTYYPDSVKGRFTISRDNAQNTLYLQMNSLRSEDTATYFCTSALNWGYWYFDFWGPGTMVTVSS VL: DIVMTQTPSSQAVSAGEKVTMSCKSSQSLLYSENKKNYLAWYQRKPGQSPKLLIYWASTRESGVPDRFIGSGSGTDFTLTISSVQAEDLAVYYCQQYYNFPLTFGSGTKLEIK

No constants are given. Whether binding was seen depends on the method and setting. Binding can be weak; no strength is given.
